Patent publication US20220193198A1 (INSTITUT CURIE, published 2022)

T1: IL-2Rαβγ (human, UniProt P01589 22-272; P14784 27-551; P31785 23-369)
T1 construct: whole, on cells; also called IL-2 receptor alpha (CD25), beta (CD122), gamma (CD132)
T1 sequence (looked up) 1: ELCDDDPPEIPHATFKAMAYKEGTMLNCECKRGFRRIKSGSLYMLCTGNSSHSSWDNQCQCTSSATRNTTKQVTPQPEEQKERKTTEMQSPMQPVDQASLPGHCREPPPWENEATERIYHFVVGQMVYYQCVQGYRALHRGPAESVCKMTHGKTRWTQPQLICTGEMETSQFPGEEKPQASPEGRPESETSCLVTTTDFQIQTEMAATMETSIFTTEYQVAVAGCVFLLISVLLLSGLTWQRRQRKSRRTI
T1 sequence (looked up) 2: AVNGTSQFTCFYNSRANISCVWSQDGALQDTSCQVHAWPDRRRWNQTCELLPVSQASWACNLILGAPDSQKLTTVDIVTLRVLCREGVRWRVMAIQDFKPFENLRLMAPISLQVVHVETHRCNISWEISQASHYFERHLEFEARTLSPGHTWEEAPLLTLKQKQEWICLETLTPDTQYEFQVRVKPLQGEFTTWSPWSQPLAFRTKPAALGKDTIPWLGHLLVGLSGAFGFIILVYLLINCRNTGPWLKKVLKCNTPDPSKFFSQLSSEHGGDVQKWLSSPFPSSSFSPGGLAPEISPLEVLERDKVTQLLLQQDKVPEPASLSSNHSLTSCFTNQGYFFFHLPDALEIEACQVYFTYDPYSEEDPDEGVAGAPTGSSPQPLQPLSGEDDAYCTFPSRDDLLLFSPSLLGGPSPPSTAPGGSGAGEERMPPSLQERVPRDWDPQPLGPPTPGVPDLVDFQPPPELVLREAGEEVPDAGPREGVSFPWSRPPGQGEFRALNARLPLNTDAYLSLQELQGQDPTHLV
T1 sequence (looked up) 3: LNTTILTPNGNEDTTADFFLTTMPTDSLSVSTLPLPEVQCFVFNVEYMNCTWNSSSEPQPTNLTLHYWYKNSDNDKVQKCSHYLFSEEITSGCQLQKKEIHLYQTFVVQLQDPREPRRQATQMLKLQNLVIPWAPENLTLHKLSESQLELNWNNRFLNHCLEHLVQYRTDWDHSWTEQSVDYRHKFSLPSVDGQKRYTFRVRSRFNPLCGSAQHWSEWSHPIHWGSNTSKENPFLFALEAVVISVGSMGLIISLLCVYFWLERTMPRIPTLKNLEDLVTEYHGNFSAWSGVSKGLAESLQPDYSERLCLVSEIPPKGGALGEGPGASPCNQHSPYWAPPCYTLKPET


These binders were tested against T1, IL-2Rαβγ (assay: Flow cytometry on Kit225 cells, 10 µM Strep-tagged variant, Strep-Tactin-A488 detection).
Experimental: Binding of IL-2 variants to the IL-2Rαβγ was assayed in IL-2-dependent human cell line Kit225 cell line that constitutively expresses IL-2Rαβγ. For ease of detection, IL-2 variants were produced with a Streptavidin Tag that allows the detection of the molecules by FACS using an anti-Streptavidin-Tag antibody (a-Strep-Tag Ab). For the experiment, Kit225 cells were deprived of IL-2 for 2 days. After that, 0.2×10⁶ cells were incubated on ice for 20 min alone or with 10 μM of IL-2 wt, IL-2V1, V2, V3, V4, V5 and V6. After wash with PBS/0.2% BSA buffer, cells were stained with an a-Strep-Tag Ab (Strep-Tactin-A488, Iba) for 20 min at 4° C. Cells were acquired on a LSRII flow cytometer and analyzed with FlowJo software.

Binder	binding result
IL-2V4 (ligand, 171 aa construct with C-terminal Strep-tag; Substitution: Y31P only) APTSSTKKTQLQLEHLLLDLQMILNGINNPKNPKLTRMLTFKFYMPKKATELKHLQCLEEELKPLEEVLNLAQSKNFHLRPRDLISNINVIVLELKGSETTFMCEYADETATIVEFLNRWITFCQSIISTLTGALVPRGSSAWSHPQFEKGGGSGGGSGGGSAWSHPQFEK	binds
IL-2V2 (ligand, 171 aa construct with C-terminal Strep-tag) APTSSTKETQEQLERLLRDLQLILKGINNPKNPKLTRMLTFKFYMPKQATSLKHLQCLEEELKPLEEVLNLAQSKNFHLEPRNLINNINKIVLKLKGSETTFMCEYADETATIVEFLKRWIAFCQSIISRSTGALVPRGSSAWSHPQFEKGGGSGGGSGGGSAWSHPQFEK	binds
IL-2V3 (ligand, 171 aa construct with C-terminal Strep-tag; Substitutions: K9E, L12E, H16R, L19R, M23L, N26K, Y31P, K49Q, E52S, R81E, D84N, S87N, V91K, E95K, T131R, L132S) APTSSTKETQEQLERLLRDLQLILKGINNPKNPKLTRMLTFKFYMPKQATSLKHLQCLEEELKPLEEVLNLAQSKNFHLEPRNLINNINKIVLKLKGSETTFMCEYADETATIVEFLNRWITFCQSIISRSTGALVPRGSSAWSHPQFEKGGGSGGGSGGGSAWSHPQFEK	binds
IL-2V5 (ligand, 171 aa construct with C-terminal Strep-tag; Substitutions: K9E, L12E, H16R, L19R, M23L, N26K, Y31P, S87N, V91K, E95K, N119K, T123A, S127K) APTSSTKETQEQLERLLRDLQLILKGINNPKNPKLTRMLTFKFYMPKKATELKHLQCLEEELKPLEEVLNLAQSKNFHLRPRDLINNINKIVLKLKGSETTFMCEYADETATIVEFLKRWIAFCQKIISTLTGALVPRGSSAWSHPQFEKGGGSGGGSGGGSAWSHPQFEK	binds

The next lines start with the values.

binding result	Binder
binds	IL-2V1 (ligand, 171 aa construct with C-terminal Strep-tag, made in HEK293 FreeStyle cells; the monomeric peak was used) APTSSTKETQEQLERLLRDLQLILKGINNYKNPKLTRMLTFKFYMPKKATELKHLQCLEEELKPLEEVLNLAQSKNFHLRPRDLINNINKIVLKLKGSETTFMCEYADETATIVEFLKRWIAFCQKIISTLTGALVPRGSSAWSHPQFEKGGGSGGGSGGGSAWSHPQFEK
binds	IL-2V6 (ligand, 171 aa construct with C-terminal Strep-tag; Substitutions: K9E, L12E, H16R, L19R, M23L, N26K, K49Q, E52S, R81E, D84N, S87N, V91K, E95K, N119K, T123A, T131R, L132S) APTSSTKETQEQLERLLRDLQLILKGINNYKNPKLTRMLTFKFYMPKQATSLKHLQCLEEELKPLEEVLNLAQSKNFHLEPRNLINNINKIVLKLKGSETTFMCEYADETATIVEFLKRWIAFCQSIISRSTGALVPRGSSAWSHPQFEKGGGSGGGSGGGSAWSHPQFEK
